Measurements: publication PMC9513055
These are yes or no findings as the source states them, for the method shown. In cells and extracts the contact can be indirect. Some results given as binding are weak or reduced against the parent protein; the word gives no strength.

By UniProt entry, the sequences of proteins in these tests, tags left out.
UniProt P54578: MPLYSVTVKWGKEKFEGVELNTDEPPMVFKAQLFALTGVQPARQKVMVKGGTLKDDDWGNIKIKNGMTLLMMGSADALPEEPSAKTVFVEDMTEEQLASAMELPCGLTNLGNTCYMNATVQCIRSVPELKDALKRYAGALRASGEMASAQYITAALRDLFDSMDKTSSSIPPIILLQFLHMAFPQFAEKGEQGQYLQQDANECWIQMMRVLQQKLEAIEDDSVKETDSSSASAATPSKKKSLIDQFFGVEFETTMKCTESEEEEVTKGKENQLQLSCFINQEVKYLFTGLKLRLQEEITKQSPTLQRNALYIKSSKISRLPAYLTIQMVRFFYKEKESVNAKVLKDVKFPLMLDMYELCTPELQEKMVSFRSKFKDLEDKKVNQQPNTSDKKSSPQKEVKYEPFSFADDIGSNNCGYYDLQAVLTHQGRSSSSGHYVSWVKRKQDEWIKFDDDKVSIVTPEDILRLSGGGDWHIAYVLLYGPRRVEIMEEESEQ
UniProt Q93009: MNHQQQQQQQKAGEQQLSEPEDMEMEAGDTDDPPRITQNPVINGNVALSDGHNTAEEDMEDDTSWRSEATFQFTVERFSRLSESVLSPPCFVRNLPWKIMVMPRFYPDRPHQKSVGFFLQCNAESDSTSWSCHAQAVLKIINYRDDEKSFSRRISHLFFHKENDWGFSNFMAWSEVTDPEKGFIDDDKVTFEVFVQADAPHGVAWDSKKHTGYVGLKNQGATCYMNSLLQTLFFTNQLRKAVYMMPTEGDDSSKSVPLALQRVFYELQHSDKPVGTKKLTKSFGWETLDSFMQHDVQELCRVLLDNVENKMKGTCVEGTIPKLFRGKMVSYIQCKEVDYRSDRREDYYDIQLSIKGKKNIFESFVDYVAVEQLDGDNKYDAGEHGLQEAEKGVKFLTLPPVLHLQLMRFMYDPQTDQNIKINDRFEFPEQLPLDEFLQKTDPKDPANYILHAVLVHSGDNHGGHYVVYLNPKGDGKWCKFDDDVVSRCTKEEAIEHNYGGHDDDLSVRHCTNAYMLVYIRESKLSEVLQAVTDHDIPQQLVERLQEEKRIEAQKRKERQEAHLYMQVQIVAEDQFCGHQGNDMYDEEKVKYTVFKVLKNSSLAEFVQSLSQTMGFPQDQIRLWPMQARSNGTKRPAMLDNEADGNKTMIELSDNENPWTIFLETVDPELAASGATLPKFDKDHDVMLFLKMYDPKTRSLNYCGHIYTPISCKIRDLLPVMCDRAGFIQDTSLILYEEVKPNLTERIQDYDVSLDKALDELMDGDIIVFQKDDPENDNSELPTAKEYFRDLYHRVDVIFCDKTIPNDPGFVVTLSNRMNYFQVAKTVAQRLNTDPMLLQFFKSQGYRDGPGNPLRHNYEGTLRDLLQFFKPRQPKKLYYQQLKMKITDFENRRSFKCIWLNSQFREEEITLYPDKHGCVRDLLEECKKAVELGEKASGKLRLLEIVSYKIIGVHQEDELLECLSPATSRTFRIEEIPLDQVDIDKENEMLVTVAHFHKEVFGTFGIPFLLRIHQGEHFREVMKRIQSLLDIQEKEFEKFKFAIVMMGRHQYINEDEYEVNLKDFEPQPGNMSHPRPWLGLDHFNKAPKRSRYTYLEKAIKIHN
UniProt P14902: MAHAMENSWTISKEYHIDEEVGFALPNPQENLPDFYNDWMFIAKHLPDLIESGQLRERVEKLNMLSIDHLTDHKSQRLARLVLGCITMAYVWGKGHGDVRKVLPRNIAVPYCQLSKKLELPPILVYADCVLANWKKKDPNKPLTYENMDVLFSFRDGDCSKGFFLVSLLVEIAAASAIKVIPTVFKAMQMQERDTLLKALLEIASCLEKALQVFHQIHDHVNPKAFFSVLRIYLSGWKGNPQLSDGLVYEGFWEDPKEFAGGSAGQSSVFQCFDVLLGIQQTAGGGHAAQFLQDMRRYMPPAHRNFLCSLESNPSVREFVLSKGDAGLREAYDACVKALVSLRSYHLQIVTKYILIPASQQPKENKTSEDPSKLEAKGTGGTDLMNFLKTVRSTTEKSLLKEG
UniProt P19474: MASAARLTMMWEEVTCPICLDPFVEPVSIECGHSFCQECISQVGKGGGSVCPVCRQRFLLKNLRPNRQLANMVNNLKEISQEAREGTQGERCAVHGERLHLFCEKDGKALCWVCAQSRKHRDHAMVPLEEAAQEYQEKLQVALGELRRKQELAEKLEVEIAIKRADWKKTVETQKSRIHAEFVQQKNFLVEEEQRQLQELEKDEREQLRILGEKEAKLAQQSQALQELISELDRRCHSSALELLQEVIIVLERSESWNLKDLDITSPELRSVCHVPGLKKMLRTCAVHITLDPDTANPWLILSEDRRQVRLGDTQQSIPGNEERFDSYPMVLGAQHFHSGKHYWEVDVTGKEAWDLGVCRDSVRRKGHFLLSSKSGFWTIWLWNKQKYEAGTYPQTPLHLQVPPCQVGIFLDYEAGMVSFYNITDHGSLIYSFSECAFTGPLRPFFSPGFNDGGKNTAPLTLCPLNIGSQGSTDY

How the values were obtained:
[1] = molecular target: Flag-tagged USP14 expressed in HEK293FT cells (not stated (human or mouse cDNA cloned)) (UniProt P54578); test: co-IP; HEK293FT cells co-transfected for 48 h with a Flag-tagged and an HA-tagged protein; lysates (150 mM NaCl, 10 mM HEPES pH 7.4, 1% NP-40) immunoprecipitated with anti-Flag at 4 °C overnight; western blot
[2] = molecular target: Flag-tagged USP7 expressed in HEK293FT cells (UniProt Q93009); test: as above
[3] = molecular target: ubiquitin-specific protease-14 (USP14), endogenous in CRC cells (human (endogenous in HCT116 and SW480)) (UniProt P54578); test: co-IP; endogenous proteins of HCT116 lysates; anti-IDO1, anti-USP14 or anti-TRIM21 antibody with protein G agarose, 4 °C overnight; western blot
[4] = molecular target: Indoleamine 2,3 dioxygenase 1 (IDO1), endogenous in HCT116 cells (human (endogenous in HCT116)) (UniProt P14902); test: as above

HA-IDO1 expressed in HEK293FT cells (from UniProt P14902 1-403)
binding [1]: binds
binding [2]: binds

Indoleamine 2,3 dioxygenase 1 (IDO1), endogenous in HCT116 cells (from UniProt P14902 1-403)
binding [3]: binds

tripartite motif containing 21 (TRIM21), endogenous in CRC cells (from UniProt P19474 1-475)
binding [4]: binds
